The campaign covered roughly 340,000 compounds. About 6,200 (1.8%) were called active. Inconclusive results, whose numbers are uncertain, are shown with a selection of clear calls. Calls come from the whole dose curve; as a rule, active = well fitted activation curve with a large enough effect; inconclusive = small, poorly fitted or top-dose-only effect; inactive = no such curve, though single readings can be large or run the other way. Where the call is inconclusive, the potency comes from a doubtful curve fit.
Assay: A quantitative high throughput screen for small molecules that induce DNA re-replication in SW480 colon adenocarcinoma cells. Note: nearly all actives have a fitted effect of over 55% in size.
Conditions: Hoechst DNA content imaging, 48 h; series mostly up to 46.1 µM
Summary of the method: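 First, 250 cells per well were seeded. Next, compound or vehicle (23 nL) was pinned in, plates sat 48 hr at 37 C. Finally Hoechst was added for 40 min before fluorescence scanning.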
Potency is the fitted concentration of half-maximal effect.

Row | SMILES | Potency
1 | CCN(CC)C(=O)CC(c1ccccc1)c1ccco1 (centres undefined) | inactive
2 | CCOC(=O)c1c(NC(=O)CN2CCN(C(=O)c3ccco3)CC2)sc(C(N)=O)c1C | inactive
3 | O=C(CN1CCCCC1)Nc1cccc(Br)c1 | inconclusive: 4.61 µM [activator, single point]
4 | C[C@]12C(=O)N(c3cccc(Cl)c3)C(=O)N1[C@@H]1c3ccccc3OC[C@@H]1[C@H]2c1ccccc1 | inactive
5 | CCOC(=O)C1=C(CCl)NC(=O)NC1c1ccc2c(c1)OCO2 (centres undefined) | inconclusive: 29.1 µM [activator, single point]
6 | COc1ccc2[nH]c(=O)c(CN(C(=O)NC3CCCCC3)C3CCCCC3)cc2c1 | inactive
7 | CN(C)S(=O)(=O)c1cccc(COC(=O)c2cc([N+](=O)[O-])ccc2N2CCOCC2)c1 | inconclusive: 0.013 µM [activator, full curve, poor fit]
8 | O=C(CNC(=O)c1ccc(Br)o1)NCc1ccc(Cl)cc1 | inconclusive: 29.1 µM [activator, single point]
9 | Cc1cc(NC(=O)/C=C/c2cccc(Cl)c2)n(-c2nc3ccccc3[nH]2)n1 | inconclusive: 14.6 µM [activator, partial curve, poor fit]
10 | Cc1ccc(Nc2nc(NCCO)nc3c2cnn3C)cc1Cl | inconclusive: 0.184 µM [activator, full curve, poor fit]
11 | COCc1cc(=O)[nH]c(/N=C(\N)Nc2cccc(Cl)c2)n1 | inconclusive: 29.1 µM [activator, single point]
12 | COc1cccc(C2Nc3ccc4ccccc4c3C3=C2C(=O)CCC3)c1O (centres undefined) | inactive
13 | CC1=C(/C=N/Nc2ccc([N+](=O)[O-])cc2[N+](=O)[O-])C(C)(C)CCC1 | inactive
14 | CN(C)C(=S)Nc1ccc(Br)c(Cl)c1 | inconclusive: 18.4 µM [activator, single point]
15 | CSc1cccc(NC(=S)N(Cc2ccc(C)cc2)Cc2ccccn2)c1 | inactive
16 | O=C(NNC1CC(=O)N(c2ccccc2)C1=O)c1ccc(COc2ccccc2Cl)o1 (centres undefined) | inactive
17 | CC1CN(CCS(=O)(=O)c2cc(Cl)ccc2Cl)CC(C)O1 (centres undefined) | inconclusive: 29.1 µM [activator, single point]
18 | CCCCN1C(=O)C(=O)N(CC(=O)N2CCN(c3ccccc3)CC2)C1=O | inconclusive: 7.31 µM [activator, partial curve, poor fit]
19 | COc1ccc(-c2nc(N)ncc2-c2ccc(OC)c(OC)c2)c(O)c1 | inconclusive: 29.1 µM [activator, single point]
20 | CCC1C(O)=C(c2ccccn2)C(=N)N1c1ccccc1 (centres undefined) | active: 18.4 µM
21 | O=C(c1nc2ccc(Cl)cn2c1CN1CCC[C@H]1CO)N1CCCCCCC1 | inconclusive: 1.84 µM [activator, partial curve, poor fit]
22 | NC(=O)c1nc[nH]c1C(=O)Nc1cccc(C(F)(F)F)c1 | inactive

Molecules above that have a carbonyl joined to an NH by a bond outside any ring:
Row | SMILES | Potency
2 | CCOC(=O)c1c(NC(=O)CN2CCN(C(=O)c3ccco3)CC2)sc(C(N)=O)c1C | inactive
3 | O=C(CN1CCCCC1)Nc1cccc(Br)c1 | inconclusive: 4.61 µM [activator, single point]
6 | COc1ccc2[nH]c(=O)c(CN(C(=O)NC3CCCCC3)C3CCCCC3)cc2c1 | inactive
8 | O=C(CNC(=O)c1ccc(Br)o1)NCc1ccc(Cl)cc1 | inconclusive: 29.1 µM [activator, single point]
9 | Cc1cc(NC(=O)/C=C/c2cccc(Cl)c2)n(-c2nc3ccccc3[nH]2)n1 | inconclusive: 14.6 µM [activator, partial curve, poor fit]
16 | O=C(NNC1CC(=O)N(c2ccccc2)C1=O)c1ccc(COc2ccccc2Cl)o1 (centres undefined) | inactive
22 | NC(=O)c1nc[nH]c1C(=O)Nc1cccc(C(F)(F)F)c1 | inactive

The listing continues:

Row | SMILES | Potency
23 | Cc1c(N=C2C=CC(=O)c3ccccc32)c(=O)n(-c2ccccc2)n1C | inconclusive: 13 µM [activator, partial curve, poor fit]
24 | COc1ccc(-c2ccc(C#N)c(OC(=O)c3c(Cl)cccc3Cl)n2)cc1 | inconclusive: 14.6 µM [activator, partial curve, poor fit]
25 | CCOC(=O)c1c(C)[nH]c(C)c1C(=O)CSc1nc2ccccc2c(=O)n1-c1ccc(Cl)cc1 | inconclusive: 20.6 µM [activator, partial curve, poor fit]
26 | Cc1ccn2c(C(=O)NN=C3CCN(C)CC3)c(C)nc2c1 | inconclusive: 29.1 µM [activator, partial curve, poor fit]
27 | Cc1cc2oc(=O)cc(CN(C)Cc3cccc(F)c3)c2cc1C | inconclusive: 0.92 µM [activator, partial curve, poor fit]
28 | CCCCN(C(=O)c1cc(-c2ccc(F)cc2)nc2ccccc12)c1c(N)n(CCCC)c(=O)[nH]c1=O | inconclusive: 18.4 µM [activator, single point]
29 | CCOC(=O)c1c(NC(=O)c2ccccc2C)sc2c1CC(C)(C)OC2 | inactive
30 | O=C1CSC(c2nn(-c3ccccc3)cc2-c2cc3ccccc3oc2=O)N1Cc1ccco1 (centres undefined) | inconclusive: 20.6 µM [activator, single point]
31 | C=CCc1cc(C)cc(C)c1OCCn1cncn1 | inconclusive: 6.51 µM [activator, single point]
32 | O=C(COCC(=O)Nc1cccc(C(F)(F)F)c1)Nc1cccc(C(F)(F)F)c1 | inconclusive: 23.1 µM [activator, single point]
33 | Cc1cc2ccccc2n1CCNC(=O)C1CCCC1 | inactive
34 | N#Cc1c(N2CCOCC2)nc(-c2ccco2)c2c1CCCC2 | inconclusive: 35.5 µM [activator, single point]
35 | CN1CCC(=NNC(=O)COc2ccc(Cl)cc2)CC1 | inactive
36 | Cc1nn(-c2ccccc2)c(N2CCCC2)c1/C=N/NC(=O)c1cc(-c2cccnc2)nc2ccccc12 | inconclusive: 20.6 µM [activator, partial curve, poor fit]
37 | O=C(NCc1ccc(F)cc1)C(=O)NCC1CCCN1S(=O)(=O)c1ccccc1 (centres undefined) | inactive
38 | CCOC(=O)c1c(C)oc2ccc(OC(=O)COc3c(F)c(F)c(F)c(F)c3F)cc12 | inconclusive: 29.1 µM [activator, single point]
39 | COc1ccc(-c2cc(C(=O)Nc3cnn(Cc4ccccc4C)c3)no2)cc1OC | inconclusive: 13 µM [activator, partial curve, poor fit]
40 | N#Cc1c(-c2ccco2)cc(-c2ccc(F)cc2)nc1N | inconclusive: 18.4 µM [activator, single point]
41 | COc1ccccc1C1CC(=O)Nc2cc(C)c(C)cc21 (centres undefined) | active: 20.6 µM
42 | COc1ccc(S(=O)(=O)N2CCN(CC(=O)N3CCc4ccccc4C3)CC2)cc1OC | inactive
43 | CC(C)C[C@H](N)c1nnc(S(=O)(=O)Cc2ccc(F)cc2)o1 | inconclusive: 23.1 µM [activator, single point]
44 | CCCCCCCCCCCC(=O)NC(C(=O)OCC)C(O)c1cccc([N+](=O)[O-])c1 (centres undefined) | inconclusive: 35.5 µM [activator, single point]

Reference: PubChem BioAssay AID624297 (National Center for Advancing Translational Sciences (NCATS), 2012)
